Four compounds from US10723742B2 (priority 2015, dated 2020) can be followed below.

In general, IC50 refers to the concentration needed to halve the response being measured.

A value given as a limit tells only on which side of the number the result lay.

The subject of assay [1] is NCI-H1417 cells (human small-cell lung cancer cell lines). The experiment in a line: cells. The following applies: NCI-H1417, read-out: Cell-Growth Inhibition Test: NCI-H1417 Cells IC50 (nM).
Assay [2] relates to HEL cells (human acute myelocytic leukemia cell lines). Kind of assay: cells. The following applies: read-out: Cell-Growth Inhibition Test: HEL Cells IC50 (nM).

Consider `Cc1ccc(-c2cc(C(=O)N3CCC(N)CC3)nn2-c2ccc(C#N)cc2)cc1` [Comp. Ex. 7, 4-(3-(4-aminopiperidine-1-carbonyl)-5-(p-tolyl)-1H-pyrazol-1-yl)benzonitrile], for which the half-maximal inhibitory concentration (IC50) in assay [1] amounted to 1960 nM; in assay [2] it was 1040 nM.

`N#Cc1ccc(-n2nc(C(=O)N3CCCC4(CNC4)C3)cc2-c2ccc(F)cc2)cc1` [Comparative Example 3, 4-(5-(4-fluorophenyl)-3-(2,6-diazaspiro[3.5]nonane-6-carbonyl)-1H-pyrazol-1-yl)benzonitrile]: the concentration for half-maximal inhibition (IC50) in assay [1] and in assay [2] was over 3000 nM each time.

With `Cc1ccc(-c2ccc(C(=O)N3CC[C@H](N)C3)cc2-c2ccc(C(F)(F)F)cc2)cc1` [Comparative Example 5, (S)-(3-aminopyrrolidin-1-yl)(4-methyl-4″-(trifluoromethyl)-[1,1′:2′,1″-terphenyl]-4′-yl)methanone], the 50% inhibitory concentration (IC50) in assay [1] and in assay [2] was over 3000 nM throughout.

With `Cc1ccc(-c2ccc(C(=O)N3CCC(c4cccnc4)C3)cc2-c2ccc(C#N)cc2)cc1` (centres unmarked) [Comparative Example 6, 4″-methyl-5′-(3-(pyridin-3-yl)pyrrolidine-1-carbonyl)-[1,1′:2′,1″-terphenyl]-4-carbonitrile], the IC50 in assay [1] and in assay [2] was over 3000 nM each time.
